PubChem BioAssay AID1259308 – NCATS | 2017

Assay: 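Genes whose loss raises luciferase production in HEK293 cells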 (primary screen)
Cells: human HEK293 embryonic kidney cells stably expressing firefly luciferase (HEK-CMV-Luc2-Hygro)
Knock-down reagent: single siRNA against human genes, 0.8 pmol siRNA per well
Time to read-out: 72 h
Read-out: 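Luciferase light (ONE-Glo) measured on one replicate plate set and viability (CellTiter-Glo) on the other, scaled to a negative control siRNA, with robust z-scores and luciferase per cell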
Reading the numbers: total luciferase, z-score and total luciferase, % of control: higher = more reporter protein produced; luciferase per cell, z-score: higher = more reporter output per viable cell; viable cells, % of control: higher = more viable cells
Call rule: 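Active when the median/MAD z-score for overall luciferase is greater than 3; a gene was taken forward for validation with new siRNAs if at least two of its three siRNAs passed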
Meaning of the calls: active = raised luciferase; inactive = no rise
Here is one part, drawn at random, of about 59,000 reagents. Over the whole deposit, about 1,510 (2.6%) are marked active. 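Calls use total luciferase alone and ignore viability, so some active siRNAs may act by altering cell number.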 The numbers tell different reagents against one gene apart.

no.	Gene	siRNA no.	total luciferase, z-score	total luciferase, % of control	luciferase per cell, z-score	viable cells, % of control	Outcome
1	ABLIM3 (actin binding LIM protein family member 3)	1	0.676	95.3	0.835	85.5	inactive
2	ABLIM3 (actin binding LIM protein family member 3)	2	-1.26	56.9	-0.332	69.4	inactive
3	ABLIM3 (actin binding LIM protein family member 3)	3	-0.896	64.1	1.06	54.2	inactive
4	FAM169BP (family with sequence similarity 169 member B, pseudogene)	1	0.955	101	2.14	64.1	inactive
5	FAM169BP (family with sequence similarity 169 member B, pseudogene)	2	0.503	91.9	0.24	96.4	inactive
6	FAM169BP (family with sequence similarity 169 member B, pseudogene)	3	1.63	114	2.56	65.2	inactive
7	TRIM46 (tripartite motif containing 46)	1	0.243	86.7	0.269	90.3	inactive
8	TRIM46 (tripartite motif containing 46)	2	2.35	129	1.07	109	inactive
9	TRIM46 (tripartite motif containing 46)	3	0.353	88.9	0.068	97.6	inactive
10	DIXDC1 (DIX domain containing 1)	1	-0.735	67.3	-0.00462	75.3	inactive
11	DIXDC1 (DIX domain containing 1)	2	2.65	135	2.42	79.5	inactive
12	DIXDC1 (DIX domain containing 1)	3	-1.54	51.3	-1.77	91.4	inactive
13	NFATC2 (nuclear factor of activated T cells 2)	1	-0.564	70.7	-0.208	83.4	inactive
14	NFATC2 (nuclear factor of activated T cells 2)	2	-0.0724	80.4	0.399	80.9	inactive
15	NFATC2 (nuclear factor of activated T cells 2)	3	2.05	123	2.88	64.1	inactive
16	ATXN1 (ataxin 1)	1	-0.0557	80.8	0.0262	89.6	inactive
17	ATXN1 (ataxin 1)	2	-1.76	47	-1.68	81.6	inactive
18	ATXN1 (ataxin 1)	3	5.07	183	3.1	90.4	active
19	PPT1 (palmitoyl-protein thioesterase 1)	1	-1.89	44.4	-1.55	74.6	inactive
20	PPT1 (palmitoyl-protein thioesterase 1)	2	-1.27	56.7	-1.24	87.8	inactive
21	PPT1 (palmitoyl-protein thioesterase 1)	3	1.17	105	0.456	104	inactive
22	RNF125 (ring finger protein 125)	1	1.73	116	1.19	95	inactive
23	RNF125 (ring finger protein 125)	2	0.284	87.5	0.406	87.9	inactive
24	RNF125 (ring finger protein 125)	3	0.599	93.8	0.587	89.8	inactive
25	R3HDM2 (R3H domain containing 2)	1	-0.643	69.1	-0.917	98.3	inactive
26	R3HDM2 (R3H domain containing 2)	2	-0.19	78.1	-0.256	93.4	inactive
27	R3HDM2 (R3H domain containing 2)	3	0.986	101	0.635	96	inactive

Part of the list above in another layout.
Gene | siRNA no. | total luciferase, z-score | total luciferase, % of control | luciferase per cell, z-score | viable cells, % of control | Outcome
NFATC2 (nuclear factor of activated T cells 2) | 2 | -0.0724 | 80.4 | 0.399 | 80.9 | inactive
NFATC2 (nuclear factor of activated T cells 2) | 3 | 2.05 | 123 | 2.88 | 64.1 | inactive
ATXN1 (ataxin 1) | 1 | -0.0557 | 80.8 | 0.0262 | 89.6 | inactive
ATXN1 (ataxin 1) | 2 | -1.76 | 47 | -1.68 | 81.6 | inactive
ATXN1 (ataxin 1) | 3 | 5.07 | 183 | 3.1 | 90.4 | active
PPT1 (palmitoyl-protein thioesterase 1) | 1 | -1.89 | 44.4 | -1.55 | 74.6 | inactive
PPT1 (palmitoyl-protein thioesterase 1) | 2 | -1.27 | 56.7 | -1.24 | 87.8 | inactive
PPT1 (palmitoyl-protein thioesterase 1) | 3 | 1.17 | 105 | 0.456 | 104 | inactive
RNF125 (ring finger protein 125) | 1 | 1.73 | 116 | 1.19 | 95 | inactive
RNF125 (ring finger protein 125) | 2 | 0.284 | 87.5 | 0.406 | 87.9 | inactive
RNF125 (ring finger protein 125) | 3 | 0.599 | 93.8 | 0.587 | 89.8 | inactive
R3HDM2 (R3H domain containing 2) | 1 | -0.643 | 69.1 | -0.917 | 98.3 | inactive

Next records:
no.	Gene	siRNA no.	total luciferase, z-score	total luciferase, % of control	luciferase per cell, z-score	viable cells, % of control	Outcome
28	TNNT3 (troponin T3, fast skeletal type)	1	1.3	108	1.16	88.7	inactive
29	TNNT3 (troponin T3, fast skeletal type)	2	0.22	86.3	0.0944	94	inactive
30	TNNT3 (troponin T3, fast skeletal type)	3	0.551	92.8	-0.0994	106	inactive
31	ZNF792 (zinc finger protein 792)	1	2.57	133	2.9	69.2	inactive
32	ZNF792 (zinc finger protein 792)	2	-0.225	77.4	-0.529	99.4	inactive
33	ZNF792 (zinc finger protein 792)	3	-1.03	61.5	-1.88	113	inactive
34	AKAP10 (A-kinase anchoring protein 10)	1	1.45	111	1.09	92.9	inactive
35	AKAP10 (A-kinase anchoring protein 10)	2	0.0777	83.4	-0.0679	94.9	inactive
36	AKAP10 (A-kinase anchoring protein 10)	3	-0.333	75.3	-0.616	98.9	inactive
37	USH1C (USH1 protein network component harmonin)	1	0.311	88.1	0.968	76.3	inactive
38	USH1C (USH1 protein network component harmonin)	2	1.5	112	1.58	82.4	inactive
39	USH1C (USH1 protein network component harmonin)	3	1.15	105	0.0817	115	inactive
40	RNF40 (ring finger protein 40)	1	-1.46	52.9	-1.51	88	inactive
41	RNF40 (ring finger protein 40)	2	-1.78	46.5	-0.635	61.4	inactive
42	RNF40 (ring finger protein 40)	3	-1.25	57.1	-0.781	78.4	inactive
43	HSPBAP1 (HSPB1 associated protein 1)	1	-0.451	72.9	-0.15	84.8	inactive
44	HSPBAP1 (HSPB1 associated protein 1)	2	-0.64	69.2	-0.95	99.2	inactive
45	HSPBAP1 (HSPB1 associated protein 1)	3	0.00735	82	0.222	86.5	inactive
46	ATP6V0B (ATPase H+ transporting V0 subunit b)	1	-1.17	58.7	-1.33	92.9	inactive
47	ATP6V0B (ATPase H+ transporting V0 subunit b)	2	-0.265	76.6	0.508	74.9	inactive
48	ATP6V0B (ATPase H+ transporting V0 subunit b)	3	-1.36	54.9	-0.444	69	inactive
49	PRXL2CP1 (PRXL2C pseudogene 1)	1	-0.13	79.3	-0.856	111	inactive
50	PRXL2CP1 (PRXL2C pseudogene 1)	2	-0.802	65.9	-0.772	90.3	inactive
51	PRXL2CP1 (PRXL2C pseudogene 1)	3	-0.792	66.1	0.445	65.7	inactive
52	C1QTNF9 (C1q and TNF related 9)	1	0.132	84.5	-0.0145	94.8	inactive
53	C1QTNF9 (C1q and TNF related 9)	2	1.22	106	1.4	82	inactive
54	C1QTNF9 (C1q and TNF related 9)	3	-0.688	68.2	-0.994	99	inactive
55	KLHL2 (kelch like family member 2)	1	1.52	112	1.37	87.2	inactive
56	KLHL2 (kelch like family member 2)	2	0.591	93.6	-0.198	110	inactive
57	KLHL2 (kelch like family member 2)	3	0.0628	83.1	1	71.4	inactive
58	REXO1 (RNA exonuclease 1 homolog)	1	-1.17	58.5	-0.796	80.6	inactive
59	REXO1 (RNA exonuclease 1 homolog)	2	-0.848	65	-0.668	86.6	inactive
60	REXO1 (RNA exonuclease 1 homolog)	3	0.837	98.5	0.292	102	inactive
61	SMIM30 (small integral membrane protein 30)	1	0.0398	82.7	2.36	49.7	inactive
62	SMIM30 (small integral membrane protein 30)	2	0.128	84.4	-0.163	98.5	inactive
63	SMIM30 (small integral membrane protein 30)	3	-0.0625	80.6	-0.103	92.6	inactive
64	PAPPA (pappalysin 1)	1	1.71	116	1.01	99.1	inactive
65	PAPPA (pappalysin 1)	2	0.551	92.8	0.313	95.5	inactive
66	PAPPA (pappalysin 1)	3	-0.222	77.5	0.654	72.9	inactive
67	HERPUD2 (HERPUD family member 2)	1	-0.454	72.8	-0.172	85.2	inactive
68	HERPUD2 (HERPUD family member 2)	2	2.9	140	2.01	91.8	inactive
69	HERPUD2 (HERPUD family member 2)	3	1.76	117	1.7	83.5	inactive
70	RPL23P7 (ribosomal protein L23 pseudogene 7)	1	-0.716	67.7	-1.34	108	inactive
71	RPL23P7 (ribosomal protein L23 pseudogene 7)	2	0.855	98.9	1.25	79.4	inactive
72	RPL23P7 (ribosomal protein L23 pseudogene 7)	3	-0.795	66.1	-0.944	94.7	inactive
73	LRRC37A4P (leucine rich repeat containing 37 member A4, pseudogene)	1	-0.343	75.1	0.363	76.2	inactive
74	LRRC37A4P (leucine rich repeat containing 37 member A4, pseudogene)	2	-0.776	66.5	-0.858	93.1	inactive
75	LRRC37A4P (leucine rich repeat containing 37 member A4, pseudogene)	3	3.93	160	2.93	82.8	active
